Values quoted from earlier work in PMC4718952, “A simple nonradioactive method for the determination of the binding affinities of antibodies induced by hapten bioconjugates for drugs of abuse” (Analytical and Bioanalytical Chemistry, 2015).

Test system: plasma proteins
Conditions: neat plasma/sera; cited from earlier work

In the case of `CN1CC[C@]23c4c5ccc(O)c4O[C@H]2[C@@H](O)C=C[C@H]3[C@H]1C5` [morphine], the plasma binding is given as ~35%.
